According to PubChem BioAssay AID540256 (National Center for Advancing Translational Sciences (NCATS), 2011):
Among all 300,000 compounds or so, about 3,700 (1.2%) were called active. The inconclusive results got no clear call from the source; some entries with a clear call stand among them for comparison. Calls follow the shape of the full dose curve; tested in HEK293 cells. Where the call is inconclusive, the potency comes from a doubtful curve fit.

Experiment: qHTS for Inhibitors of binding or entry into cells for Lassa Virus; also: nearly all actives have a fitted effect of over 50% in size
Settings: Lassa virus pseudotype entry inhibition, cell reporter; activity change, negative = inhibition: at 37.9 µM (top of the series) unless noted
% is scaled to controls: 0 for no effect and ±100 for the full control effect; potency is read from the fitted curve at half-maximal effect.

Row | Structure (SMILES) | Potency | activity change, negative = inhibition
1 | Cc1cccc(N2CCN(S(=O)(=O)c3c(C)nc4scc(C)n4c3=O)CC2C)c1 (centres undefined) | inconclusive: 28.2 µM [inhibitor, partial curve, poor fit] | –
2 | N#C/C(=C\c1ccc(O)c(O)c1)S(=O)(=O)c1ccccc1 | – | inactive: 3.99%
3 | COc1ccc(N2C(=O)CCSC23C(=O)N(Cc2ccc(F)cc2)c2ccccc23)cc1Cl (centres undefined) | inconclusive: 1.41 µM [inhibitor, full curve, poor fit] | –
4 | N#CC12COC3(CCCCC3C1(C#N)C#N)OC2=N (centres undefined) | – | inactive: 1.45%
5 | CCN(CC)S(=O)(=O)c1ccc(N2CCOCC2)c(NC(=O)C2COc3ccccc3O2)c1 (centres undefined) | inconclusive: 25.1 µM [inhibitor, single point] | –
6 | CCN(Cc1ccccc1)C(c1ccc(C(F)(F)F)cc1)c1nnnn1C(C)(C)C (centres undefined) | inconclusive: 22.4 µM [inhibitor, single point] | –
7 | O=C(COC(=O)c1ccccc1O)NC(=O)NCc1ccccc1 | inconclusive: 5.62 µM [inhibitor, single point] | –
8 | Cc1cc(SCC(=O)N2CCCC2=O)nc2ccccc12 | inconclusive: 22.4 µM [activator, single point] | –
9 | O=C(O)CSc1nc2ccccc2nc1N1CCCCC1 | – | inactive: -12.3% [at 46.1 µM]
10 | Cc1ccc(N(CCC#N)C(=O)COC(=O)C2CCN(c3ccc(C(F)(F)F)cn3)CC2)cc1 | inconclusive: 35.5 µM [inhibitor, single point] | –
11 | COc1cccc(C(=O)Nc2nc3ccc(S(C)(=O)=O)cc3s2)c1 | inconclusive: 7.08 µM [activator, partial curve, poor fit] | –
12 | CC1CCC(NC(=O)C2CCN(c3nc4ccccc4s3)CC2)CC1 (centres undefined) | inconclusive: 1.26 µM [inhibitor, single point] | –
13 | COc1ccc(-c2noc(C3CC(=O)N(c4ccc5c(c4)OCCO5)C3)n2)c(OC)c1 (centres undefined) | inconclusive: 2.82 µM [activator, full curve] | –
14 | COc1cccc(NS(=O)(=O)c2cc(-c3cnc(C4CC4)o3)ccc2C)c1 | inconclusive: 3.98 µM [inhibitor, partial curve] | –
15 | CCCCn1nc(C(=O)O)ccc1=O | – | inactive: 0.618%
16 | O=C1CC(N2CCN(c3nc4ccccc4s3)CC2)C(=O)N1Cc1cccs1 (centres undefined) | inconclusive: 22.4 µM [inhibitor, partial curve, poor fit] | –
17 | O=C(OCc1ccc(Cl)c(Cl)c1)c1cccnc1Cl | – | inactive: 6.51%
18 | O=C(Cn1nc(Cc2cccnc2)c2ccccc2c1=O)N1CCC2(CC1)OCCO2 | – | inactive: 8.2%
19 | CSc1nc2c(c(=O)[nH]c(=O)n2C)n1Cc1ccccc1 | inconclusive: 0.282 µM [inhibitor, full curve, poor fit] | –
20 | COc1ccccc1OCC(=O)Nc1cc(S(=O)(=O)N2CCOCC2)ccc1N1CCCCC1 | inconclusive: 12.6 µM [inhibitor, partial curve, poor fit] | –
21 | COc1cc2c(cc1NC(=O)CSc1nccn1C)oc1ccccc12 | inconclusive: 32.6 µM [inhibitor, single point] | –
22 | COc1ccc(NC(=O)CN(C)S(=O)(=O)c2cnc[nH]2)cc1 | inconclusive: 11.2 µM [activator, single point] | –
23 | O=C(Nc1ccccc1N1CCOCC1)c1cccc(Oc2ccccc2)c1 | inconclusive: 35.5 µM [inhibitor, single point] | –

Row | Structure (SMILES) | Potency | activity change, negative = inhibition
24 | O=C(CSc1nnc(-c2ccccc2)n1Cc1ccccc1)NNC(=O)c1ccccc1O | inconclusive: 35.5 µM [inhibitor, single point] | –
25 | CCCCC(=O)Nc1ccc2c(c1)oc1ccccc12 | inconclusive: 4.11 µM [activator, partial curve, poor fit] | –
26 | O=C(N/N=C/c1cc2ccccc2[nH]1)c1ccccc1Cl | inconclusive: 15.8 µM [activator, single point] | –
27 | O=C(NCCc1ccccc1)c1ccc2nc(-c3ccco3)c(-c3ccco3)nc2c1 | inconclusive: 16.4 µM [inhibitor, single point] | –
28 | COc1ccc(C)cc1NC(=O)N1CCC(CO)(CC2CCCCO2)CC1 (centres undefined) | – | inactive: 1.41%
29 | CCOc1ccccc1N1CC(c2nc3ccccc3n2CCCCOc2ccccc2)CC1=O (centres undefined) | inconclusive: 35.5 µM [inhibitor, single point] | –
30 | CC(=O)N1CCCN(C(=O)c2cc(COc3c(F)cccc3F)on2)CC1 | – | inactive: 15.2%
31 | COc1ccc(C2c3cc(OC)c(OC)cc3CC(=O)N2c2cccc(C#N)c2)cc1 (centres undefined) | – | inactive: 12.1% [at 46.1 µM]
32 | O=C(CCCC(=O)N(CC(=O)NC1CCCCC1)c1ccccc1F)Nc1ccccn1 | – | inactive: -12.5% [at 46.1 µM]
33 | Cc1ccc(C)c(C(=O)N2CCC(c3nc4c(nnn4Cc4ccccc4)c(=O)[nH]3)CC2)c1 | inconclusive: 5.01 µM [inhibitor, full curve] | –
34 | O=C(CSCc1cccc(CSCC(=O)Nc2ccccc2)n1)Nc1ccccc1 | inconclusive: 12.6 µM [inhibitor, partial curve, poor fit] | –
35 | COc1ccc(Cc2nc3ccc(C(=O)NCCc4ccc(Cl)cc4)cc3o2)cc1 | inconclusive: 4.47 µM [inhibitor, full curve, poor fit] | –
36 | c1ccc(-c2nnc3sc(CN4CCc5ccccc54)cn23)cc1 | – | inactive: -25.8%
37 | Cc1ccc(CNc2c(C)c(C)nc3nncn23)cc1 | – | inactive: 27.4% [at 46.1 µM]
38 | Cc1ccc(S(=O)(=O)NN2C(=O)/C(=C/c3cccn3C)SC2=S)cc1 | – | inactive: -0.18%
39 | O=C(Nc1ccccc1N1CCOCC1)c1cc2c(s1)CCCCC2 | inconclusive: 35.5 µM [inhibitor, single point] | –
40 | Cc1ccc(Cn2ncc3c(N4CCN(C)CC4)ncnc32)cc1 | – | inactive: -19.5%
41 | O=C(CSC(=S)N1CCOCC1)Nc1nc(=O)c2ccccc2s1 | inconclusive: 11.6 µM [activator, partial curve, poor fit] | –
42 | C=CCOc1ccc(/C=C2\SC(=Nc3cccnc3)NC2=O)cc1 | active: 3.55 µM | –
43 | O=C(CCn1c(=O)c2cccn2c2cccnc21)NCc1cccc(Br)c1 | – | inactive: -4.24% [at 46.1 µM]
44 | Cc1cnc(-c2nnc(N(C)C(=O)c3cccnc3)s2)cn1 | inconclusive: 25.9 µM [activator, single point] | –
45 | Cc1cccc(OCCNc2ccc(C(F)(F)F)cc2[N+](=O)[O-])c1 | inconclusive: 17.8 µM [activator, single point] | –
46 | O=C(Cn1ncc2c(=O)oc3ccccc3c21)NCCC1=CCCCC1 | inconclusive: 31.6 µM [activator, single point] | –

Six compounds drawn at random from those above, as already listed:
Row | Structure (SMILES) | Potency | activity change, negative = inhibition
35 | COc1ccc(Cc2nc3ccc(C(=O)NCCc4ccc(Cl)cc4)cc3o2)cc1 | inconclusive: 4.47 µM [inhibitor, full curve, poor fit] | –
44 | Cc1cnc(-c2nnc(N(C)C(=O)c3cccnc3)s2)cn1 | inconclusive: 25.9 µM [activator, single point] | –
32 | O=C(CCCC(=O)N(CC(=O)NC1CCCCC1)c1ccccc1F)Nc1ccccn1 | – | inactive: -12.5% [at 46.1 µM]
27 | O=C(NCCc1ccccc1)c1ccc2nc(-c3ccco3)c(-c3ccco3)nc2c1 | inconclusive: 16.4 µM [inhibitor, single point] | –
40 | Cc1ccc(Cn2ncc3c(N4CCN(C)CC4)ncnc32)cc1 | – | inactive: -19.5%
34 | O=C(CSCc1cccc(CSCC(=O)Nc2ccccc2)n1)Nc1ccccc1 | inconclusive: 12.6 µM [inhibitor, partial curve, poor fit] | –

Next part

Row | Structure (SMILES) | Potency | activity change, negative = inhibition
47 | COc1cccc(NC(=O)c2ccc(N3C(=O)C4CCC(C)CC4C3=O)cc2)c1 (centres undefined) | inconclusive: 1 µM [inhibitor, single point] | –
48 | COc1ccc(NCc2ccc(OC)c(Cn3ccnc3)c2)c(OC)c1 | inconclusive: 0.794 µM [inhibitor, single point] | –
49 | O=C(NCCC1=CCCCC1)Nc1ccc2nsnc2c1 | inconclusive: 35.5 µM [inhibitor, single point] | –
50 | O=C1c2[nH]nc(-c3ccccc3O)c2C(c2cccc(Cl)c2)N1CC1CCCO1 (centres undefined) | inconclusive: 4.47 µM [inhibitor, partial curve, poor fit] | –
51 | O=C(Nc1ccccc1)Nc1cccc2nsnc12 | inconclusive: 6.31 µM [activator, single point] | –
52 | CCOc1ccc(NC(=O)COc2ccc(C(=O)NCCc3ccccc3)cc2)cc1 | inconclusive: 3.16 µM [activator, partial curve, poor fit] | –
53 | COc1ccc(-c2ccc(NC(=O)c3ccco3)cc2)nn1 | inconclusive: 1.26 µM [inhibitor, full curve, poor fit] | –
54 | Cc1ccc(N(CC(=O)NCCSCc2ccco2)S(=O)(=O)c2ccc(F)cc2)cc1 | inconclusive: 32.6 µM [inhibitor, single point] | –
55 | COc1ccc(C)cc1NC(=O)CN1CCN(c2ccc(F)cc2)CC1 | inconclusive: 5.01 µM [inhibitor, partial curve, poor fit] | –
56 | COc1ccc(CNC(=O)[C@H](C)[C@@H]2C[C@@]2(C)[C@@H](NC(=O)OCc2ccccc2)c2ccccc2)cc1OC | inconclusive: 14.6 µM [inhibitor, partial curve, poor fit] | –
57 | O=C1Nc2ccccc2/C1=C/c1cccnc1 | inconclusive: 6.51 µM [inhibitor, full curve, poor fit] | –
58 | Cc1cc(C)c2c(c1)[C@@H]1C=CC[C@@H]1[C@H](c1ccc(S(=O)(=O)N3CCOCC3)cc1)N2 | – | inactive: -3.08%
59 | O=C1CCC(=O)N1CCCCCc1nc(-c2ccccc2)no1 | – | inactive: -7.51%
60 | CC(=O)N[C@H]1C[C@@H]1c1ccccc1 | – | inactive: -0.707%
61 | N#Cc1cccc(Nc2nccc(-c3cnn4ncccc34)n2)c1 | inconclusive: 0.0628 µM [inhibitor, full curve] | –
62 | CCOC(=O)c1ccc(N2C(=O)c3n[nH]c(C)c3C2c2ccc(OC)c(OC)c2)cc1 (centres undefined) | – | inactive: -8.95%
63 | CCCC(=O)N(c1ccc2oc(-c3ccccc3)c(C(=O)OCC)c2c1)S(=O)(=O)c1ccc(C)cc1 | inconclusive: 8.91 µM [inhibitor, partial curve, poor fit] | –
64 | O=C(NCC(c1ccc2c(c1)OCO2)N1CCOCC1)c1ccc(F)cc1 (centres undefined) | – | inactive: 14.1% [at 46.1 µM]
65 | CCOC(=O)N1CCN(c2ncnc3c2[nH]c2ccc(OC)cc23)CC1 | inconclusive: 8.2 µM [inhibitor, partial curve, poor fit] | –
66 | O=C(COC(=O)Cc1c[nH]c2ccccc12)Nc1c(Cl)cccc1C(F)(F)F | – | inactive: 13.3%
67 | O=C(/C=C/c1cccc(F)c1)NC1CCN(Cc2ccccc2)CC1 | – | inactive: 5.27%
68 | Cc1ccc(NC(=O)Cn2c(=O)n(-c3ccc(CC(=O)NCC4CCCO4)cc3)c(=O)c3ccccc32)cc1 (centres undefined) | – | inactive: 23.8% [at 46.1 µM]
69 | CCN(C(=O)c1cnc(NC(C)C)cc1C(F)(F)F)c1ccc(Cl)cc1Cl | inconclusive: 8.91 µM [inhibitor, partial curve, poor fit] | –
